Measurements from publication PMC5302884.
These are yes or no findings as the source states them, for the method shown. In cells and extracts the contact can be indirect. Some entries that bind do so weakly or less than the wild type. Values belong to the binder of their own block, whether it stands above or below them.

Columns and labels:
Bak G4C (human) [1] = target: Bak G4C (human) (UniProt Q16611); assay: cross-linking; membrane fractions incubated with tBid (100 nM, 30 min, 30°C), pre-chilled, CuPhe on ice 15 min; non-reducing SDS-PAGE, immunoblot for Bak; 2x complexes
Bak G4C (human) [2] = target: Bak G4C (human) (UniProt Q16611); assay: cross-linking + native gel or EMSA; membrane fractions incubated with tBid, CuPhe on ice, then solubilised in 1% digitonin and run on blue native PAGE; 4x and greater complexes mean linkage between dimers (dimers to higher order complexes)
Bak N190C (human) = Bak N190C (human) (UniProt Q16611); assay: cross-linking; membrane fractions incubated with tBid (100 nM, 30 min, 30°C), pre-chilled, CuPhe on ice 15 min; non-reducing SDS-PAGE, immunoblot for Bak; 2x complexes
Bak D57C (human) [3] = target: Bak D57C (human) (UniProt Q16611); assay: as above
Bak D57C (human) [4] = target: Bak D57C (human) (UniProt Q16611); assay: cross-linking + native gel or EMSA; membrane fractions incubated with tBid, CuPhe on ice, then solubilised in 1% digitonin and run on blue native PAGE; 4x and greater complexes mean linkage between dimers (dimers to higher order complexes)
Bak G51C (human) [5] = target: Bak G51C (human) (UniProt Q16611); assay: cross-linking; membrane fractions incubated with tBid (100 nM, 30 min, 30°C), pre-chilled, CuPhe on ice 15 min; non-reducing SDS-PAGE, immunoblot for Bak; 2x complexes
Bak G51C (human) [6] = target: Bak G51C (human) (UniProt Q16611); assay: cross-linking + native gel or EMSA; membrane fractions incubated with tBid, CuPhe on ice, then solubilised in 1% digitonin and run on blue native PAGE; 4x and greater complexes mean linkage between dimers (dimers to higher order complexes)
Bak T62C (human) [7] = target: Bak T62C (human) (UniProt Q16611); assay: cross-linking; membrane fractions incubated with tBid (100 nM, 30 min, 30°C), pre-chilled, CuPhe on ice 15 min; non-reducing SDS-PAGE, immunoblot for Bak; 2x complexes
Bak T62C (human) [8] = target: Bak T62C (human) (UniProt Q16611); assay: cross-linking + native gel or EMSA; membrane fractions incubated with tBid, CuPhe on ice, then solubilised in 1% digitonin and run on blue native PAGE; 4x and greater complexes mean linkage between dimers (dimers to higher order complexes)
Bak H99C (human) = Bak H99C (human) (UniProt Q16611); assay: as above
Bak S68C (human) [9] = target: Bak S68C (human) (UniProt Q16611); assay: cross-linking; membrane fractions incubated with tBid (100 nM, 30 min, 30°C), pre-chilled, CuPhe on ice 15 min; non-reducing SDS-PAGE, immunoblot for Bak; 2x complexes
Bak S68C (human) [10] = target: Bak S68C (human) (UniProt Q16611); assay: cross-linking + native gel or EMSA; membrane fractions incubated with tBid, CuPhe on ice, then solubilised in 1% digitonin and run on blue native PAGE; 4x and greater complexes mean linkage between dimers (dimers to higher order complexes)
Bak S69C (human) [11] = target: Bak S69C (human) (UniProt Q16611); assay: cross-linking; membrane fractions incubated with tBid (100 nM, 30 min, 30°C), pre-chilled, CuPhe on ice 15 min; non-reducing SDS-PAGE, immunoblot for Bak; 2x complexes
Bak S69C (human) [12] = target: Bak S69C (human) (UniProt Q16611); assay: cross-linking + native gel or EMSA; membrane fractions incubated with tBid, CuPhe on ice, then solubilised in 1% digitonin and run on blue native PAGE; 4x and greater complexes mean linkage between dimers (dimers to higher order complexes)
Bak Q66C (human) [13] = target: Bak Q66C (human) (UniProt Q16611); assay: cross-linking; membrane fractions incubated with tBid (100 nM, 30 min, 30°C), pre-chilled, CuPhe on ice 15 min; non-reducing SDS-PAGE, immunoblot for Bak; 2x complexes
Bak Q66C (human) [14] = target: Bak Q66C (human) (UniProt Q16611); assay: cross-linking + native gel or EMSA; membrane fractions incubated with tBid, CuPhe on ice, then solubilised in 1% digitonin and run on blue native PAGE; 4x and greater complexes mean linkage between dimers (dimers to higher order complexes)
Bak I188C (human) = Bak I188C (human) (UniProt Q16611); assay: cross-linking; membrane fractions incubated with tBid (100 nM, 30 min, 30°C), pre-chilled, CuPhe on ice 15 min; non-reducing SDS-PAGE, immunoblot for Bak; 2x complexes
Bak S23C (human) [15] = target: Bak S23C (human) (UniProt Q16611); assay: as above
Bak S23C (human) [16] = target: Bak S23C (human) (UniProt Q16611); assay: cross-linking + native gel or EMSA; membrane fractions incubated with tBid, CuPhe on ice, then solubilised in 1% digitonin and run on blue native PAGE; 4x and greater complexes mean linkage between dimers (dimers to higher order complexes)
Bak P58C (human) [17] = target: Bak P58C (human) (UniProt Q16611); assay: cross-linking; membrane fractions incubated with tBid (100 nM, 30 min, 30°C), pre-chilled, CuPhe on ice 15 min; non-reducing SDS-PAGE, immunoblot for Bak; 2x complexes
Bak P58C (human) [18] = target: Bak P58C (human) (UniProt Q16611); assay: cross-linking + native gel or EMSA; membrane fractions incubated with tBid, CuPhe on ice, then solubilised in 1% digitonin and run on blue native PAGE; 4x and greater complexes mean linkage between dimers (dimers to higher order complexes)
Bak G186C (human) = Bak G186C (human) (UniProt Q16611); assay: cross-linking; membrane fractions incubated with tBid (100 nM, 30 min, 30°C), pre-chilled, CuPhe on ice 15 min; non-reducing SDS-PAGE, immunoblot for Bak; 2x complexes

binding (Bak G4C (human) [1]): binds
binding (Bak G4C (human) [2]): binds
B1: Bak G4C (protein, UniProt Q16611 1-211)
chain: MASCQGPGPPRQESGEPALPSASEEQVAQDTEEVFRSYVFYRHQQEQEAEGVAAPADPEMVTLPLQPSSTMGQVGRQLAIIGDDINRRYDSEFQTMLQHLQPTAENAYEYFTKIATSLFESGINWGRVVALLGFGYRLALHVYQHGLTGFLGQVTRFVVDFMLHHSIARWIAQRGGWVAALNLGNGPILNVLVVLGVVLLGQFVVRRFFKS

binding (Bak N190C (human)): binds
B2: Bak N190C (protein, UniProt Q16611 1-211)
chain: MASGQGPGPPRQESGEPALPSASEEQVAQDTEEVFRSYVFYRHQQEQEAEGVAAPADPEMVTLPLQPSSTMGQVGRQLAIIGDDINRRYDSEFQTMLQHLQPTAENAYEYFTKIATSLFESGINWGRVVALLGFGYRLALHVYQHGLTGFLGQVTRFVVDFMLHHSIARWIAQRGGWVAALNLGNGPILCVLVVLGVVLLGQFVVRRFFKS

binding (Bak D57C (human) [3]): binds
binding (Bak D57C (human) [4]): binds
B3: Bak D57C (protein, UniProt Q16611 1-211)
chain: MASGQGPGPPRQESGEPALPSASEEQVAQDTEEVFRSYVFYRHQQEQEAEGVAAPACPEMVTLPLQPSSTMGQVGRQLAIIGDDINRRYDSEFQTMLQHLQPTAENAYEYFTKIATSLFESGINWGRVVALLGFGYRLALHVYQHGLTGFLGQVTRFVVDFMLHHSIARWIAQRGGWVAALNLGNGPILNVLVVLGVVLLGQFVVRRFFKS

binding (Bak G51C (human) [5]): binds
binding (Bak G51C (human) [6]): binds
B4: Bak G51C (protein, UniProt Q16611 1-211)
chain: MASGQGPGPPRQESGEPALPSASEEQVAQDTEEVFRSYVFYRHQQEQEAECVAAPADPEMVTLPLQPSSTMGQVGRQLAIIGDDINRRYDSEFQTMLQHLQPTAENAYEYFTKIATSLFESGINWGRVVALLGFGYRLALHVYQHGLTGFLGQVTRFVVDFMLHHSIARWIAQRGGWVAALNLGNGPILNVLVVLGVVLLGQFVVRRFFKS

binding (Bak T62C (human) [7]): binds
binding (Bak T62C (human) [8]): binds
B5: Bak T62C (protein, UniProt Q16611 1-211)
chain: MASGQGPGPPRQESGEPALPSASEEQVAQDTEEVFRSYVFYRHQQEQEAEGVAAPADPEMVCLPLQPSSTMGQVGRQLAIIGDDINRRYDSEFQTMLQHLQPTAENAYEYFTKIATSLFESGINWGRVVALLGFGYRLALHVYQHGLTGFLGQVTRFVVDFMLHHSIARWIAQRGGWVAALNLGNGPILNVLVVLGVVLLGQFVVRRFFKS

binding (Bak H99C (human)): binds
B6: Bak H99C (protein, UniProt Q16611 1-211)
chain: MASGQGPGPPRQESGEPALPSASEEQVAQDTEEVFRSYVFYRHQQEQEAEGVAAPADPEMVTLPLQPSSTMGQVGRQLAIIGDDINRRYDSEFQTMLQCLQPTAENAYEYFTKIATSLFESGINWGRVVALLGFGYRLALHVYQHGLTGFLGQVTRFVVDFMLHHSIARWIAQRGGWVAALNLGNGPILNVLVVLGVVLLGQFVVRRFFKS

binding (Bak S68C (human) [9]): binds
binding (Bak S68C (human) [10]): binds
B7: Bak S68C (protein, UniProt Q16611 1-211)
chain: MASGQGPGPPRQESGEPALPSASEEQVAQDTEEVFRSYVFYRHQQEQEAEGVAAPADPEMVTLPLQPCSTMGQVGRQLAIIGDDINRRYDSEFQTMLQHLQPTAENAYEYFTKIATSLFESGINWGRVVALLGFGYRLALHVYQHGLTGFLGQVTRFVVDFMLHHSIARWIAQRGGWVAALNLGNGPILNVLVVLGVVLLGQFVVRRFFKS

binding (Bak S69C (human) [11]): binds
binding (Bak S69C (human) [12]): binds
B8: Bak S69C (protein, UniProt Q16611 1-211)
chain: MASGQGPGPPRQESGEPALPSASEEQVAQDTEEVFRSYVFYRHQQEQEAEGVAAPADPEMVTLPLQPSCTMGQVGRQLAIIGDDINRRYDSEFQTMLQHLQPTAENAYEYFTKIATSLFESGINWGRVVALLGFGYRLALHVYQHGLTGFLGQVTRFVVDFMLHHSIARWIAQRGGWVAALNLGNGPILNVLVVLGVVLLGQFVVRRFFKS

binding (Bak Q66C (human) [13]): binds
binding (Bak Q66C (human) [14]): binds
B9: Bak Q66C (protein, UniProt Q16611 1-211)
chain: MASGQGPGPPRQESGEPALPSASEEQVAQDTEEVFRSYVFYRHQQEQEAEGVAAPADPEMVTLPLCPSSTMGQVGRQLAIIGDDINRRYDSEFQTMLQHLQPTAENAYEYFTKIATSLFESGINWGRVVALLGFGYRLALHVYQHGLTGFLGQVTRFVVDFMLHHSIARWIAQRGGWVAALNLGNGPILNVLVVLGVVLLGQFVVRRFFKS

binding (Bak I188C (human)): binds
B10: Bak I188C (protein, UniProt Q16611 1-211)
chain: MASGQGPGPPRQESGEPALPSASEEQVAQDTEEVFRSYVFYRHQQEQEAEGVAAPADPEMVTLPLQPSSTMGQVGRQLAIIGDDINRRYDSEFQTMLQHLQPTAENAYEYFTKIATSLFESGINWGRVVALLGFGYRLALHVYQHGLTGFLGQVTRFVVDFMLHHSIARWIAQRGGWVAALNLGNGPCLNVLVVLGVVLLGQFVVRRFFKS

binding (Bak S23C (human) [15]): binds
binding (Bak S23C (human) [16]): binds
B11: Bak S23C (protein, UniProt Q16611 1-211)
chain: MASGQGPGPPRQESGEPALPSACEEQVAQDTEEVFRSYVFYRHQQEQEAEGVAAPADPEMVTLPLQPSSTMGQVGRQLAIIGDDINRRYDSEFQTMLQHLQPTAENAYEYFTKIATSLFESGINWGRVVALLGFGYRLALHVYQHGLTGFLGQVTRFVVDFMLHHSIARWIAQRGGWVAALNLGNGPILNVLVVLGVVLLGQFVVRRFFKS

binding (Bak P58C (human) [17]): binds
binding (Bak P58C (human) [18]): binds
B12: Bak P58C (protein, UniProt Q16611 1-211)
chain: MASGQGPGPPRQESGEPALPSASEEQVAQDTEEVFRSYVFYRHQQEQEAEGVAAPADCEMVTLPLQPSSTMGQVGRQLAIIGDDINRRYDSEFQTMLQHLQPTAENAYEYFTKIATSLFESGINWGRVVALLGFGYRLALHVYQHGLTGFLGQVTRFVVDFMLHHSIARWIAQRGGWVAALNLGNGPILNVLVVLGVVLLGQFVVRRFFKS

binding (Bak G186C (human)): binds
B13: Bak G186C (protein, UniProt Q16611 1-211)
chain: MASGQGPGPPRQESGEPALPSASEEQVAQDTEEVFRSYVFYRHQQEQEAEGVAAPADPEMVTLPLQPSSTMGQVGRQLAIIGDDINRRYDSEFQTMLQHLQPTAENAYEYFTKIATSLFESGINWGRVVALLGFGYRLALHVYQHGLTGFLGQVTRFVVDFMLHHSIARWIAQRGGWVAALNLGNCPILNVLVVLGVVLLGQFVVRRFFKS
